# The campaign covered roughly 340,000 compounds. About 170 (0.05%) were called active. This list was built around the results that the source calls inconclusive (neither active nor inactive); the mix of calls is not that of the screen. Calls come from the whole dose curve; as a rule, active = well fitted inhibition curve with a large enough effect in the signal ratio, with a control signal flat (not every such curve was filed as active); inconclusive = small, poorly fitted or top-dose-only effect, or effect the other way, or a change in a side signal; inactive = flat fitted curve, though single readings scatter; the % refers to the signal ratio. Potencies beside an inconclusive call are fits to weak or partial responses and may not hold up.
# Test: qHTS Assay to Find Inhibitors of Chronic Active B-Cell Receptor Signaling;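 for activity change, negative = inhibition: plate controls were basal doxycycline-induced cells for no effect and cells given 10 µM MG132 for full effect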
# Conditions: ABC-DLBCL IkBa-CBG/CBR reporter, luminescence ratio (green luciferase fused to IkBa over red control in TMD8 lymphoma cells), 4 h; activity change, negative = inhibition: at 46.1 µM (top of the series)
# In short: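 TMD8 human ABC-DLBCL cells with doxycycline-inducible IκBα–green luciferase fusion and unfused red luciferase, in 0.5% FBS medium; compounds up to 46 uM, 4 h at 37C. Green/red luminescence ratio, filter-overlap corrected, fitted to concentration-response curves.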
# Potency is the fitted concentration of half-maximal effect.
SMILES,Potency,"activity change, negative = inhibition"
Cc1ccc(C(=O)N2CCN(c3ccc(NC(=O)c4ccc(Br)o4)cc3)CC2)cc1,"inconclusive: 13 µM [falling, single point]",–
Cn1c(CN2CCCCC2)nc2cc(NC(=O)c3ccccc3Cl)ccc21,"inconclusive: 11.2 µM [falling, partial curve]",–
Cc1ccc(C(CC(=O)NCc2ccco2)c2ccc(OC(C)C)cc2)cc1 (stereo unspecified),–,inconclusive: 26.2%
CCOc1ccccc1NC(=S)NCC1CCCO1 (stereo unspecified),–,inconclusive: -12.8%
CC[C@]12c3[nH]c4ccccc4c3CCN1C(=O)C(CC(=O)NCCC1=CCCCC1)C[C@@H]2C(=O)N1CCN(C(=O)c2ccco2)CC1 (stereo partly specified),–,inconclusive: -6.47%
Cc1cc(C(=O)COC(=O)/C=C/c2ccc(F)cc2)c(C)n1C,–,inconclusive: 9.56%
COc1ccccc1N1CCN(c2nnc(-c3ccc(F)cc3)c3ccccc23)CC1,–,inactive
CCOc1cccc(C=NNc2ccc(S(=O)(=O)Nc3ccccc3C(=O)O)cc2[N+](=O)[O-])c1O,–,inactive
Cc1cccc(NC2=C(Cl)C(=O)OC2OC(=O)c2ccco2)c1 (stereo unspecified),–,inconclusive: 4.36%
CCC(C)c1ccc(NC(=O)c2cccs2)cc1 (stereo unspecified),"inconclusive: 18.4 µM [falling, single point]",–
O=C(COC(=O)c1ccc(Cl)cc1O)Nc1cccnc1Cl,"inconclusive: 29.1 µM [falling, single point]",–
Cc1cc(Nc2ccc(Cl)cc2)nc(NCc2ccccc2)n1,–,inconclusive: -19.6%
CC#CCCCC(=O)Nc1cccc(C(=O)O)c1,"inconclusive: 35.5 µM [rising, single point]",–
Cc1ccc(CCNC(=O)c2ccc3c(c2)N(Cc2cccc(Cl)c2)C(=O)c2ccccc2S3(=O)=O)cc1,–,inconclusive: 10.9%
COCCn1c(C)cc(C(=O)COC(=O)c2cncc(Br)c2)c1C,–,inactive
CN=c1scc(C)n1/N=C/c1ccc2c(c1)OCO2,"inconclusive: 20.6 µM [falling, single point]",–
CCOC(=O)c1sc(NC(=S)NC(=O)c2ccccc2)nc1C,"inconclusive: 0.631 µM [falling, full curve]",–
COc1cccc(C2CC(c3ccccc3OC)n3nc(N)nc3N2)c1 (stereo unspecified),–,inconclusive: -4.21%
O=C(O)C1CC(=O)N(c2ccc(OCc3ccccc3Cl)cc2)C1 (stereo unspecified),"inconclusive: 3.26 µM [falling, partial curve]",–
Cc1ccc(Cl)cc1Nc1nn2c(=O)c3ccc(C(=O)N4CCCC(C)C4)cc3nc2s1 (stereo unspecified),–,inactive
CCN(CC(=O)Nc1cc(Cl)ccc1Cl)C(=O)c1ccc(-n2cccn2)cc1,–,inconclusive: 3.35%

# At a glance, part of the list above:
SMILES,Potency,"activity change, negative = inhibition"
CC#CCCCC(=O)Nc1cccc(C(=O)O)c1,"inconclusive: 35.5 µM [rising, single point]",–
Cc1ccc(CCNC(=O)c2ccc3c(c2)N(Cc2cccc(Cl)c2)C(=O)c2ccccc2S3(=O)=O)cc1,–,inconclusive: 10.9%
COCCn1c(C)cc(C(=O)COC(=O)c2cncc(Br)c2)c1C,–,inactive
CN=c1scc(C)n1/N=C/c1ccc2c(c1)OCO2,"inconclusive: 20.6 µM [falling, single point]",–
